# Screening data, single-dose tests

Chains of the proteins cited; added tags and fusions are not shown. Residues count along the entry.
UniProt Q8IDJ8, 1-583: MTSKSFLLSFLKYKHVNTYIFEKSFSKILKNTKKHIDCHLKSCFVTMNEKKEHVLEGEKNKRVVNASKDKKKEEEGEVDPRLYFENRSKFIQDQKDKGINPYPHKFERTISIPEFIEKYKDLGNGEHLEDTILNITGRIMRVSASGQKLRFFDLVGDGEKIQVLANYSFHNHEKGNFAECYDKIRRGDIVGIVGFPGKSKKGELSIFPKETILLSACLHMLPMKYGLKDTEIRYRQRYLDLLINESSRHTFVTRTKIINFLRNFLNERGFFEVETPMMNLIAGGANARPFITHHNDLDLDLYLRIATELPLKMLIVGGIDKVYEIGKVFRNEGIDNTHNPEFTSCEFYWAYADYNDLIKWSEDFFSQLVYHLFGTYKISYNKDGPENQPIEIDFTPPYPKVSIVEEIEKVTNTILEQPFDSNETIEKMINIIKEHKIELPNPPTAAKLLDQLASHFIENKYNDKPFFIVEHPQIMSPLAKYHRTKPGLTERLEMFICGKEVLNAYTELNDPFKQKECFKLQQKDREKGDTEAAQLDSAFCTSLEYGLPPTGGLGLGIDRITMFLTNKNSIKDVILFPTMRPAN
UniProt P9WFT3, whole entry: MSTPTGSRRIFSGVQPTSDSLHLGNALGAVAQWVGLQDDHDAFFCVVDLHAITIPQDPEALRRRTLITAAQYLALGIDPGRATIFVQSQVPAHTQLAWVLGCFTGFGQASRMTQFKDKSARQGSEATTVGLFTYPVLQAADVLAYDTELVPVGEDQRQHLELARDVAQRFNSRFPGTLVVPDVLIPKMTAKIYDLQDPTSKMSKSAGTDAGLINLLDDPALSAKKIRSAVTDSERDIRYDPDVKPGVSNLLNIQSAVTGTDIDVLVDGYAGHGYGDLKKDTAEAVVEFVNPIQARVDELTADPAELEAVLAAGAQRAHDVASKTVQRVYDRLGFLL
UniProt P9WPC5, whole entry: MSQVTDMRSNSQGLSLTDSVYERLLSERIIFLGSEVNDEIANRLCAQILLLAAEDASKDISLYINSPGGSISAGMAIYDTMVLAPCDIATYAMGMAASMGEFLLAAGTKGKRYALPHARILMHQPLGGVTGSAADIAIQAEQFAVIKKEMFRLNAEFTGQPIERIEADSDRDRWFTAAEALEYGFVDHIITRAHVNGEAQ
UniProt P9WPC3, whole entry partner: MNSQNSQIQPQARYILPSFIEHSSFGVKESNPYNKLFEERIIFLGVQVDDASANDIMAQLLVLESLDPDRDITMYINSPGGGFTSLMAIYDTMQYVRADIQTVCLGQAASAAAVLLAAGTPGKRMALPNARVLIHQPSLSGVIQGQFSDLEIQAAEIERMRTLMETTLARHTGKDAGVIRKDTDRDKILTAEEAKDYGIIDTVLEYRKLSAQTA
UniProt Q4DA54, 1-478: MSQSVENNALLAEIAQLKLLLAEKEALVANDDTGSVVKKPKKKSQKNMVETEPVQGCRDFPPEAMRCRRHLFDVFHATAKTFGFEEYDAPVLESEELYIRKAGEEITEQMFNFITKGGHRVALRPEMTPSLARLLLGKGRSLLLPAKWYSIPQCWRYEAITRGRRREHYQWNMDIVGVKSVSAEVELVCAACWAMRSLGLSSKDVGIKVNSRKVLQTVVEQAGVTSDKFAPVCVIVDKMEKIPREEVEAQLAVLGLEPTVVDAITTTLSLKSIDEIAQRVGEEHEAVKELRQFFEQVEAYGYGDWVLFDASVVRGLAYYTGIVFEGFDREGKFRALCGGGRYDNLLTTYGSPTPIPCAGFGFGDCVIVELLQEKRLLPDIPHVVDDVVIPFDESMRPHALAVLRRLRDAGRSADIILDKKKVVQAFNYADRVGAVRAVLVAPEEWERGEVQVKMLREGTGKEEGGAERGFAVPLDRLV

Measurements from “University of Dundee, Small-Polar-MMV Screening Library” (2021), ChEMBL document CHEMBL3988442.

PfKRS1: 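Enzyme assay of the cytosolic lysyl-tRNA synthetase in 384-well plates, read by luminescence. Target: Lysine-tRNA ligase, Plasmodium falciparum 3D7 (UniProt Q8IDJ8). Tested at 30 µM. Direction is inferred from only a few compounds that gave an IC50; most scored high, so higher reads as stronger inhibition. About 69,000 compounds were tested under these conditions; 0.071% (about 49) showed 50% or more at least once.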
MtTrpRS: 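Tryptophan-tRNA ligase, Mycobacterium tuberculosis (UniProt P9WFT3). Enzyme assay of tryptophanyl-tRNA synthetase; the read-out is not stated. Tested at 10 µM. Higher most likely means stronger inhibition; the record gives no direction and few retests gave an IC50. About 65,000 compounds were tested under these conditions; 0.098% (about 64) showed 50% or more at least once.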
ClpP1P2: 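Protease assay of ClpP1P2, read by the AMC dye that it sets free. Target: ClpP1P2, Mycobacterium tuberculosis (UniProt P9WPC5 and UniProt P9WPC3). Concentration: 50 µM. Higher reads as stronger inhibition, judged from the few compounds that gave an IC50. Most other retested compounds had strongly negative values. Size under these conditions: about 69,000 compounds, about 10 of them at 50% or above in at least one test.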
TcHisRS: 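Enzyme assay of histidyl-tRNA synthetase; the read-out is not stated. Target: Histidine-tRNA ligase, Trypanosoma cruzi CL Brener (UniProt Q4DA54). Tested at 30 µM. Higher reads as stronger inhibition (inferred: compounds with an IC50 in retests scored well above the rest). Size under these conditions: about 69,000 compounds, about 31 of them at 50% or above in at least one test.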

Values are the deposited “Percent Effect”, in %.
How 0% and 100% were set is not recorded. Most values in the screen are low, and negative values occur.
Compounds were drawn at random from those tested, without regard to their results.
A dash means the value is not listed here; it may have been measured.

| # | SMILES | PfKRS1 | MtTrpRS | ClpP1P2 | TcHisRS |
|---|---|---|---|---|---|
| 1 | `Cc1nnc([C@H]2CC[C@@H]3[C@@H](CCN3CC3CCOCC3)O2)o1` | -0.7073 | 2.344 | -1.869 | 2.299 |
| 2 | `O=C(O)CCCC(=O)N1CCC(c2noc3cc(F)ccc23)CC1` | 3.399 | 1.455 | 0.5502 | 12 |
| 3 | `CC(C)=CCC1(CO)CCCN(Cc2nccs2)C1` (stereo not given) | -2.038 | 1.445 | 1.084 | 3.947 |
| 4 | `CN1CCN2CCN(C(=O)c3cc4ncc(CCO)cn4n3)CC2C1` (stereo not given) | 4.049 | -1.188 | -2.277 | 2.463 |
| 5 | `Cc1ccn(-c2ccc(C(=O)N3CCCC(C(N)=O)C3)cc2)n1` (stereo not given) | -3.093 | -4.957 | 2.621 | 3.008 |
| 6 | `CCO[C@@H]1CC[C@H]2[C@H]1OCCN2CC1CCC1` | 5.156 | 4.499 | -11.61 | -0.6135 |
| 7 | `CNS(=O)(=O)c1cccc(C(=O)N(C)Cc2ccsc2)c1` | -0.4564 | 39.88 | 8.047 | 6.286 |
| 8 | `CNc1ncccc1CN1CCN(C)CC(C(=O)N(C)C)C1` (stereo not given) | -2.278 | 9.796 | -1.735 | 3.448 |
| 9 | `Cc1noc(-c2ccnc(Oc3ccc(CN4CCCC4)cc3F)c2)n1` | -5.186 | 4.348 | 6.076 | -5.6 |
| 10 | `Cn1cc(C2CCCN2C(=O)Cc2coc(-c3ccccc3)n2)cn1` (stereo not given) | 0.07013 | -0.7158 | -6.772 | 2.976 |
| 11 | `CN(CCc1ccc2c(c1)CCO2)C1CCS(=O)(=O)CC1` | 2.718 | -0.7802 | -6.731 | 4.762 |
| 12 | `Cc1nc(CN2CC[C@H]3[C@@H]2CCC(=O)N3c2cnn(C)c2)cs1` | 1.344 | 21.37 | -11.49 | -2.857 |
| 13 | `CCOC(=O)Cc1csc(NC(=O)c2cc3n(n2)CCCO3)n1` | 8.428 | 1.483 | -5.715 | 2.424 |
| 14 | `CC(C)(C)OC(=O)N1CCCN1C(=O)c1cccc(F)c1F` | 4.028 | 1.656 | -1.421 | 1.463 |
| 15 | `COc1cc(N2C[C@H](OCc3cccnc3)[C@H]3OCCC[C@H]32)ncn1` | 5.97 | -1.759 | 0.3513 | 0.8 |
| 16 | `CC(NC(=O)Cn1cccn1)c1ccc2c(c1)OCCCO2` (stereo not given) | -5.252 | 0.3997 | 28.89 | -2.29 |
| 17 | `CCS(=O)(=O)NCC1CCN(c2cnccn2)CC1` | 1.599 | 3.223 | 1.901 | 11 |
| 18 | `O=C(c1ccnc(NC2CC2)c1)N1CCCC1c1cccc(Br)c1` (stereo not given) | 0.9566 | -5.02 | 2.487 | 11.6 |
| 19 | `CC[C@H]1NCCC[C@]12CCC(=O)N2Cc1ccncc1` | 3.737 | -0.9924 | 2.466 | 0 |
| 20 | `Cc1cc(-c2cnc(N3CCC(O)CC3)nc2C(C)C)on1` | 1.781 | -6.593 | 1.157 | 2.825 |
| 21 | `OCC(O)CSCc1cn(-c2ccc(F)c(Cl)c2)nn1` (stereo not given) | 4.821 | -15.38 | 8.539 | 5.882 |
| 22 | `COCc1nc(C2CC2)nn1-c1ccccc1Cl` | 5.495 | -1.232 | -5.262 | 10.71 |
| 23 | `Cc1occc1C(=O)NCC(=O)NCCOc1cccc(Cl)c1` | -0.9169 | 2.624 | 4.663 | -2.128 |
| 24 | `Cc1ccc(CC(NC(=O)Cn2cnnn2)c2ccccn2)cc1` (stereo not given) | 1.09 | -0.8081 | -5.067 | 9.184 |
| 25 | `CCOC(C)c1nc(Cn2cc(-n3cccc3)cn2)cs1` (stereo not given) | 3.627 | -1.262 | 1.541 | 0 |
| 26 | `CCCOCCN1CCN(c2ncnc3[nH]ccc23)CC1` | 12.19 | 1.978 | -5.025 | -2.424 |
| 27 | `Cn1ccnc1CN1CC[C@@H]2[C@@H](CCC(=O)N2CCc2c[nH]cn2)C1` | 3.005 | -1.886 | -17.18 | -2.041 |
| 28 | `C=C(Br)CN(C)C1CCN(CCc2ccccn2)CC1` | 1.252 | -3.247 | -12.2 | 1.754 |
| 29 | `O=C(Nc1ccccc1)C1=NOC2(CCCN(C(=O)C3CCCC3)C2)C1` (stereo not given) | -1.736 | -4.265 | -9.606 | -0.9346 |
| 30 | `CC(NC(=O)NCC1(c2ccc(F)cc2)CCCC1)c1nncn1C` (stereo not given) | -0.006753 | -4.035 | -14.67 | 3.468 |
| 31 | `CNC(=O)CCc1cc(C2CCCN2S(C)(=O)=O)nc(C)n1` (stereo not given) | 1.844 | -6.788 | -20.31 | -0.2857 |
| 32 | `O=C(CN1CCCC(Cn2cncn2)C1)NCCc1cccs1` (stereo not given) | -0.2347 | -6.615 | -21.03 | 2.825 |
| 33 | `CS(=O)(=O)NCc1cc2n(n1)CCCN(Cc1cccc(C#N)c1)C2` | 7.786 | 6.767 | -10.04 | 3.306 |
| 34 | `COc1c(C)cc(C(C(=O)O)N(C)Cc2ccn[nH]2)cc1C` (stereo not given) | 3.054 | 1.941 | 0.23 | 6.186 |
| 35 | `c1csc(-c2nc(CNC3CCc4ncnn4C3)co2)c1` (stereo not given) | 3.721 | -0.3997 | -9.04 | 3.817 |
| 36 | `Cc1ncc(CN2CCN(c3ccc4nncn4n3)C(C)C2)s1` (stereo not given) | 0.9094 | -4.576 | -2.533 | 3.448 |
| 37 | `CCOC(=O)N1CCN(C(=O)CCn2ccc3c(OC)cccc32)CC1` | 0.5456 | 3.496 | -6.031 | 0 |
| 38 | `CCOc1cc(CNC(=O)NCc2nc(C)c(C)s2)ccn1` | 2.615 | 1.961 | 5.424 | 9.091 |
| 39 | `COc1cc(CNC(C)Cn2ccnc2)cc2c1OCCO2` (stereo not given) | 1.68 | -2.279 | 13.06 | -5 |
| 40 | `Cc1nn(C)cc1C(=O)N1CCCC(n2nnc3cc(F)ccc32)C1` (stereo not given) | -2.141 | - | 4.409 | 6.383 |
| 41 | `Cc1cnn(CC2CN(Cc3csc(C(C)C)n3)CCO2)c1` (stereo not given) | -0.3928 | 1.63 | -28.77 | 3.207 |
| 42 | `COc1ccccc1CN(C)C(=O)NCc1c(C)cc(C)[nH]c1=O` | -0.2381 | -6.541 | -9.283 | 10.98 |
| 43 | `CCn1ncc2c1C(COC)CN(Cc1cccnc1)C2` (stereo not given) | -0.4399 | 9.891 | 4.971 | 8.411 |
| 44 | `CCNC(=O)COc1ccc(C(=O)NC(C)CCc2ccco2)cc1` (stereo not given) | -0.2216 | 1.852 | 4.227 | -1.97 |
| 45 | `Cc1ccc(CC(=O)N2CCOCC2c2ncon2)cc1` (stereo not given) | -0.2373 | -6.198 | -8.703 | 2.339 |
| 46 | `COc1ccc2c(c1)c(-c1nc(N(C)C)ncc1CN)cn2C` | -0.1612 | 3.876 | -16.75 | -7.28 |
| 47 | `Cn1nc2c(cc1=O)CN(Cc1nc(-c3cccs3)no1)CC2` | 2.668 | 3.632 | -0.1967 | 1.132 |
| 48 | `Cc1cc(F)ccc1N1CCCC(NC2CCOCC2)C1=O` (stereo not given) | 0.6051 | -5.059 | 5.123 | 5.752 |
| 49 | `CN(C)c1ccc(CNC2=NCCCN2)cc1` | -2.857 | 3.818 | 9.289 | 6.18 |
| 50 | `Cc1nn(C)c(C)c1C1CCCN1CC(=O)Nc1nccs1` (stereo not given) | -0.5011 | 2.825 | -15.17 | -2.616 |
| 51 | `CC(C)Oc1ccc(CSc2nnc(CN3CCCC3=O)o2)cc1` | 2.581 | -2.842 | -11.82 | 3.734 |
| 52 | `N#CCCn1cnc2c(Br)cc(Br)cc2c1=O` | -0.02347 | 0.7742 | 25.7 | 11.11 |
| 53 | `CCO[C@@H]1CC[C@H]2[C@H]1OCCN2CC1CCOCC1` | 2.471 | 2.057 | 8.296 | -4.294 |
| 54 | `CC(C)OCCCNC(=O)CS(=O)(=O)Cc1ccc(Cl)cc1` | -0.4979 | 75.42 | 5.474 | 3.429 |
| 55 | `CN(C)C(=O)COC[C@@]12CCC[C@@H]1CNC2` | -0.2221 | 6.105 | 4.425 | 2.454 |
| 56 | `CCOc1ncccc1CN1Cc2ncccc2C1=O` | 6.29 | -6.238 | -6.54 | 8.427 |
| 57 | `Cc1cc(C(=O)N2CCc3ncc(CN4CCCC4)n3CC2)no1` | 6.861 | -3.516 | 3.928 | 8.247 |
| 58 | `Cn1nccc1CCC(=O)N1CCC(c2cnccn2)CC1` | -0.8218 | -4.928 | 13.95 | 5.97 |
| 59 | `O[C@@H]1CN(CC2=Cc3cc(Cl)ccc3OC2)CC[C@H]1N1CCCCCC1` | 2.189 | -0.6791 | -2.364 | 12.99 |
| 60 | `CCCn1cc(Cl)c(C(=O)N2C[C@@H](O)[C@H](Oc3ccccc3)C2)n1` | 0.9539 | -3.906 | -21.98 | -0.3831 |
| 61 | `O=C1CC(c2ccc3c(c2)OCO3)c2snc(C(=O)O)c2N1` (stereo not given) | -1.423 | 0.6477 | -0.7756 | 2.609 |
| 62 | `CCn1cnnc1C1CCN(C(=O)c2ccoc2C)CC1` | -2.647 | 17.23 | -8.428 | 1.724 |
| 63 | `CCOC(=O)N1CC2(CCNCC2)c2cc(Cl)ccc21` | 1.52 | -5.141 | 4.146 | 2.404 |
| 64 | `CC(C)OCCC(=O)Nc1ncn(CC(=O)N2CCCCCC2)n1` | 7.253 | -1.271 | -1.96 | 4.712 |

For reference, 7 entries once more:

| SMILES | PfKRS1 | MtTrpRS | ClpP1P2 | TcHisRS |
|---|---|---|---|---|
| `CC(C)Oc1ccc(CSc2nnc(CN3CCCC3=O)o2)cc1` | 2.581 | -2.842 | -11.82 | 3.734 |
| `Cn1cc(C2CCCN2C(=O)Cc2coc(-c3ccccc3)n2)cn1` (stereo not given) | 0.07013 | -0.7158 | -6.772 | 2.976 |
| `COc1ccccc1CN(C)C(=O)NCc1c(C)cc(C)[nH]c1=O` | -0.2381 | -6.541 | -9.283 | 10.98 |
| `COc1cc(N2C[C@H](OCc3cccnc3)[C@H]3OCCC[C@H]32)ncn1` | 5.97 | -1.759 | 0.3513 | 0.8 |
| `Cn1nccc1CCC(=O)N1CCC(c2cnccn2)CC1` | -0.8218 | -4.928 | 13.95 | 5.97 |
| `Cn1nc2c(cc1=O)CN(Cc1nc(-c3cccs3)no1)CC2` | 2.668 | 3.632 | -0.1967 | 1.132 |
| `O=C1CC(c2ccc3c(c2)OCO3)c2snc(C(=O)O)c2N1` (stereo not given) | -1.423 | 0.6477 | -0.7756 | 2.609 |